Assay results reported in patent US9518995B2, “FKBP52-Tau interaction as a novel therapeutical target for treating the neurological disorders involving Tau dysfunction” (Institut National de la Sante et de la Recherche Medicale …, priority 2009, dated 2016).
For at least one compound, name, drawing or mass did not settle the structure.

What was measured:
Format in all cases: cell-based, rat
PC12 cells [1] = experiment: Tau accumulation induced by NGF (Western blot); details: NGF 50 nM 5 days plus Dox
H7C2 cells = experiment: Tau accumulation induced by NGF (Western blot); details: NGF 50 nM 5 days plus Dox (FKBP52 overexpression)
PC12 cells [2] = experiment: Quantitation of neurite outgrowth; details: Dox-treated versus untreated PC12 cells

SMILES: C[C@H]1c2cccc(O)c2C(=O)C2=C(O)[C@]3(O)C(=O)C(C(N)=O)=C(O)[C@@H](N(C)C)[C@@H]3[C@@H](O)[C@@H]21 [Dox, doxycycline]
- accumulation of Tau protein (PC12 cells [1]): An increase in Tau protein was still observed
- accumulation of Tau protein (H7C2 cells): no additional accumulation of Tau protein occurred
- neurite length (PC12 cells [2]): no difference in neurite length
